{
  "sequences": {"note": "Amino acid sequences for entries named in this document (tags omitted).", "UniProt P18054, whole entry, looked up": "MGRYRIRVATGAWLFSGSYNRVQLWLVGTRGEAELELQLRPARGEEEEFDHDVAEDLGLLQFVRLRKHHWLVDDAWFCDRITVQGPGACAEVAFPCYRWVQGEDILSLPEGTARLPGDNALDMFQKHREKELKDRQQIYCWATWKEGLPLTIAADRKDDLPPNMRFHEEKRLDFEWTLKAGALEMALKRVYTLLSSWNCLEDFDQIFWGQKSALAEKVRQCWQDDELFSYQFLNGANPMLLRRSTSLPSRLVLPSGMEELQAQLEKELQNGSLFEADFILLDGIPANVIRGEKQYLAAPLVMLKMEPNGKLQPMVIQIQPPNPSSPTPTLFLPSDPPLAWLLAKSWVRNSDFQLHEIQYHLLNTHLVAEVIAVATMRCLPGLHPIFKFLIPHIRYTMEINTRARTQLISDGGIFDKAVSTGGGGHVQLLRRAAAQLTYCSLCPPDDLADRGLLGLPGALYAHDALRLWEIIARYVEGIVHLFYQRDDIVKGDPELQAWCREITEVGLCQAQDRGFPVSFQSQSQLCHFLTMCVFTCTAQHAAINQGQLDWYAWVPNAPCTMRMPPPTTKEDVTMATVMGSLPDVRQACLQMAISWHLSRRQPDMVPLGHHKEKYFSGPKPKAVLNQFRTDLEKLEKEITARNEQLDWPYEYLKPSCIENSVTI"},
  "source": "PubChem BioAssay AID1671190",
  "about": "(National Center for Advancing Translational Sciences (NCATS), 2021)",
  "note": "In all, about 580,000 compounds went through this assay and about 6,100 (1.1%) were called active. Inconclusive means that the source gave no clear call. Such entries were picked first, then a sample of the others. Calls follow the shape of the dose curve; as a rule, active = well fitted inhibition curve with a large enough effect; inconclusive = small, poorly fitted or top-dose-only effect, or another doubt; inactive = no such curve, though single readings can be large or run the other way. Potencies beside an inconclusive call are fits to weak or partial responses and may not hold up. % is scaled to controls: 0 for no effect and ±100 for the full control effect; potency is read from the fitted curve at half-maximal effect.",
  "data": [
    {"target": "Polyunsaturated fatty acid lipoxygenase ALOX12 (Homo sapiens) (UniProt P18054)", "assay": "Primary qHTS assay for inhibitors of human arachidonate 12S-lipoxygenase (ALOX12): Round 2", "conditions": "purified 12hLO, xylenol orange hydroperoxide absorbance; activity change, negative = inhibition: at 108 µM (top of the series) unless noted", "in_short": "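Purified human 12hLO (150 nM final) in 25 mM Hepes, 0.01% Triton X-100, pH 7.0 was preincubated 15 min at room temperature with compound. Then 40 uM arachidonic acid was added, 30 min. Hydroperoxide was read by Fe-XO absorbance ratio 573/405 nm.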", "values": [
      {"smiles": "Nc1c(N=Nc2cccc(Cl)c2)c(=O)[nH]n1-c1ccccc1", "Potency": "inconclusive: 28.2 µM [inhibitor, single point]"},
      {"smiles": "CCN(CC)S(=O)(=O)c1cc(NC(=O)Cc2n[nH]c(=O)c3ccccc23)ccc1C", "activity change, negative = inhibition": "inactive: -4.14%"},
      {"smiles": "O=C(O)/C(=C\\c1c(C(=O)O)[nH]c2cc(Cl)cc(Cl)c12)c1ccccc1", "Potency": "active: 35.5 µM"},
      {"smiles": "CC[N+]1=C(C)C(C)(C)c2cc(C)ccc21", "Potency": "inconclusive: 44.7 µM [inhibitor, partial curve]"},
      {"smiles": "COc1ccc(/C(C)=N/Nc2nc3ccccc3nc2C)cc1OC", "Potency": "inconclusive: 39.8 µM [inhibitor, partial curve, poor fit]"},
      {"smiles": "Oc1ccc(/C=N/N(Cc2ccccc2)c2ccccc2)cc1", "Potency": "inconclusive: 89.1 µM [inhibitor, single point]"},
      {"smiles": "CC1CC(=O)NN=C1c1ccc(N)c([N+](=O)[O-])c1", "note": "(centres undefined)", "Potency": "inconclusive: 50.1 µM [inhibitor, partial curve, poor fit]"},
      {"smiles": "Cc1cc(C)c(-c2c(O)c3ccccc3n(C)c2=O)c(C)c1", "Potency": "inconclusive: 112 µM [inhibitor, single point]"},
      {"smiles": "O=C(CCCC(=O)OCC(=O)c1cccc([N+](=O)[O-])c1)Nc1cc(C(F)(F)F)ccc1Cl", "activity change, negative = inhibition": "inactive: -20.4%"},
      {"smiles": "CCn1c(C(=O)Nc2ccc(C)cc2C)cc2sc(Cl)cc21", "Potency": "inconclusive: 50.1 µM [inhibitor, partial curve, poor fit]"},
      {"smiles": "Cn1c(=O)c2c(nc(SCCCc3ccccc3)n2Cc2ccccc2)n(C)c1=O", "Potency": "inconclusive: 89.1 µM [inhibitor, partial curve, poor fit]"},
      {"smiles": "CSc1ccc(Cl)c(C(=O)NC(C)c2ccncc2)c1", "note": "(centres undefined)", "activity change, negative = inhibition": "inactive: -1.91%"},
      {"smiles": "Cc1ccc2[nH]c(C(=O)NCc3nc(-c4cccc(NC(=O)c5cc(C)oc5C)c4)oc3C)cc2c1", "activity change, negative = inhibition": "inactive: -0.301%"},
      {"smiles": "Cc1ccc(-c2cccc([C@H]3[C@@H]4C=CC[C@@H](C)[C@@H]4C(=O)N3Cc3ccccc3)c2)cc1", "Potency": "inconclusive: 8.91 µM [inhibitor, partial curve, poor fit]"},
      {"smiles": "Cc1ccc(OCCSc2nc3ccccc3n2CC(=O)O)cc1C", "Potency": "inconclusive: 22.4 µM [inhibitor, partial curve, poor fit]"},
      {"smiles": "CN(C)c1cccc(CNC(=O)c2ccc3nc([C@@H]4O[C@H](CO)[C@H](O)[C@H](O)[C@H]4O)[nH]c3c2)c1", "Potency": "inconclusive: 39.8 µM [inhibitor, partial curve, poor fit]"},
      {"smiles": "O=C(Nc1cccc(C(=O)N2CCCCC2)c1)C1CCC1", "Potency": "inconclusive: 39.8 µM [inhibitor, partial curve]"},
      {"smiles": "O=C(Nc1ccc(N2CCN(C(=O)c3ccccc3)CC2)cc1)c1cccs1", "activity change, negative = inhibition": "inactive: 14.3%"},
      {"smiles": "N#Cc1nc(C2CC2)oc1N1CCN(Cc2cccc(Cl)c2)CC1", "activity change, negative = inhibition": "inactive: -24.9%"},
      {"smiles": "CC(NC(=O)c1cccc(S(=O)(=O)Nc2ccc(F)cc2)c1)c1ccccc1", "note": "(centres undefined)", "Potency": "inconclusive: 56.2 µM [inhibitor, partial curve, poor fit]"},
      {"smiles": "COc1ccc(-c2cc(C(=O)NCC3CCCO3)c3ccccc3n2)cc1", "note": "(centres undefined)", "Potency": "inactive"},
      {"smiles": "Cc1cccc(-n2c(-c3ccoc3C)n[nH]c2=S)c1", "Potency": "inconclusive: 56.2 µM [inhibitor, partial curve, poor fit]"},
      {"smiles": "CC(C)c1ccc(CNc2nc(-c3ccco3)nn2S(=O)(=O)c2ccc(F)cc2)cc1", "Potency": "inconclusive: 112 µM [inhibitor, partial curve, poor fit]"},
      {"smiles": "CCN1CC(CN(C)Cc2cn(-c3ccc(C)cc3)nc2-c2ccc(F)cc2)CC1=O", "note": "(centres undefined)", "activity change, negative = inhibition": "inactive: 2.88%"},
      {"smiles": "CN1C[C@@H]2[C@@H]3C(=O)N(Cc4ccccc4)C(=O)[C@@H]3[C@](Cc3ccccc3)(C1=O)N2C(=O)c1ccc(F)cc1", "activity change, negative = inhibition": "inactive: 4.81%"},
      {"smiles": "O=C(COc1ccccc1C(=O)NCC1CCCO1)Nc1ccc(Br)cc1", "note": "(centres undefined)", "activity change, negative = inhibition": "inactive: 0.838%"},
      {"smiles": "Cc1ccc(-n2c(C3CCN(C(=O)c4cccc(F)c4)CC3)n[nH]c2=O)cc1", "Potency": "inconclusive: 70.8 µM [inhibitor, partial curve, poor fit]"},
      {"smiles": "CNC(=O)C(C)NC(=O)c1cccc(Cl)c1Cl", "note": "(centres undefined)", "activity change, negative = inhibition": "inactive: 14.5%"},
      {"smiles": "CC(C)C(=O)NC(=S)Nc1ccc(NC(=O)c2cccc(Cl)c2)cc1", "Potency": "active: 15.8 µM"},
      {"smiles": "NC(=O)CC(NC(=O)c1ccc(Br)cc1)c1ccc(N2CCCCCCC2)c([N+](=O)[O-])c1", "note": "(centres undefined)", "Potency": "inconclusive: 44.7 µM [inhibitor, partial curve, poor fit]"},
      {"smiles": "COc1ccc2[nH]cc(C(C(=O)O)N3CCN(C(=O)OC(C)(C)C)CC3)c2c1", "note": "(centres undefined)", "activity change, negative = inhibition": "inactive: -2.72%"},
      {"smiles": "S=C(c1cccs1)N1CCCC1", "activity change, negative = inhibition": "inactive: 0%"},
      {"smiles": "CCC1CN(C(=O)C2CCN(c3nc4ccccc4o3)CC2)CCO1", "note": "(centres undefined)", "activity change, negative = inhibition": "inactive: 12.6%"},
      {"smiles": "C[S+](=O)([O-])N1Cc2ccccc2CC12CN(C(=O)Nc1ccccc1)C2", "activity change, negative = inhibition": "inactive: 51.5%"},
      {"smiles": "Cc1nn(-c2ccc(C(C)C)cc2)c(C)c1[C@@H]1C=C[C@@H](NCc2ccccc2)C1", "activity change, negative = inhibition": "inactive: 3.03% [at 176 µM]"},
      {"smiles": "CCCN(C(=O)c1ccc(OCC(C)C)cc1)c1c(N)n(Cc2ccccc2)c(=O)[nH]c1=O", "Potency": "inconclusive: 112 µM [inhibitor, partial curve, poor fit]"},
      {"smiles": "Cc1ccc(S(=O)(=O)NNc2c3ccccc3nc3ccc(Cl)cc23)cc1", "Potency": "active: 25.1 µM"},
      {"smiles": "CC(C)(C)C1CCc2onc(C(=O)Nc3sc4c(c3C#N)CCCC4)c2C1", "note": "(centres undefined)", "activity change, negative = inhibition": "inconclusive: -56% [inhibitor]"},
      {"smiles": "Cc1sc2nc3n(c(=O)c2c1C)NC(=O)CC3", "Potency": "inconclusive: 5.62 µM [inhibitor, partial curve, poor fit]"},
      {"smiles": "CSc1ccccc1C(=O)Nc1ccccc1C(C)(C)C", "activity change, negative = inhibition": "inactive: -20.2%"},
      {"smiles": "N#Cc1ccc(OCCSc2ccc3c(c2)OCCO3)cc1", "activity change, negative = inhibition": "inactive: -23.6%"},
      {"smiles": "O=C(NCC1(COc2cccnc2)C[C@@H](O)[C@@H](O)C1)Nc1cccnc1", "note": "(some centres undefined)", "Potency": "inconclusive: 7.08 µM [inhibitor, partial curve, poor fit]"},
      {"smiles": "Cc1c(C#N)c(O)[nH]c(=O)c1N=Nc1ccc(Cl)c(C(=O)O)c1", "Potency": "inconclusive: 50.1 µM [inhibitor, partial curve, poor fit]"},
      {"smiles": "CC(=O)Nc1ccc(S(=O)(=O)NC(C)C(=O)NC(C)c2ccccc2)cc1", "note": "(centres undefined)", "activity change, negative = inhibition": "inactive: 0.609%"},
      {"smiles": "CC(=O)c1ccc(C(=O)OC(C)C(=O)c2ccc(C)cc2)s1", "note": "(centres undefined)", "activity change, negative = inhibition": "inconclusive: -41.2% [inhibitor]"},
      {"smiles": "CCc1nc2c(c(-c3ccc(Cl)cc3)n1)CN(C(=O)Cc1cccc(Cl)c1)CC2", "Potency": "inconclusive: 44.7 µM [inhibitor, partial curve]"},
      {"smiles": "CCNc1ccc2c(cc1=O)[C@@H](NC(C)=O)CCc1cc(OC)c(OC)c(OC)c1-2", "Potency": "inconclusive: 15.8 µM [inhibitor, partial curve, poor fit]"},
      {"smiles": "CCC(C)c1ccc(NC(=O)C2CCN(c3ccc(C(F)(F)F)cn3)CC2)cc1", "note": "(centres undefined)", "Potency": "inconclusive: 35.5 µM [inhibitor, partial curve, poor fit]"},
      {"smiles": "N/C(=N\\OC(=O)Cc1cccs1)c1ccc(Cl)cc1", "Potency": "inconclusive: 79.4 µM [inhibitor, single point]"},
      {"smiles": "COC(=O)C1=C(C)N(Cc2cccc(C(F)(F)F)c2)C(=NCc2cc(OC)c(OC)c(OC)c2)NC1c1ccc(F)cc1", "note": "(centres undefined)", "Potency": "inconclusive: 89.1 µM [inhibitor, partial curve, poor fit]"},
      {"smiles": "Cc1cccc(C2NS(=O)(=O)N=C2N)c1", "note": "(centres undefined)", "activity change, negative = inhibition": "inactive: 0%"},
      {"smiles": "CNc1nnc(Sc2ccc(S(=O)(=O)NC(C)C)cc2[N+](=O)[O-])s1", "activity change, negative = inhibition": "inconclusive: -33.5% [inhibitor]"},
      {"smiles": "CC(C)(C)c1ccc(NC(=O)c2cc(F)c(F)c(F)c2F)cc1", "activity change, negative = inhibition": "inactive: -24.8%"},
      {"smiles": "CC(C)(C)NC(=S)NCc1ccco1", "Potency": "inconclusive: 141 µM [inhibitor, partial curve, poor fit]"},
      {"smiles": "Cc1nc(-c2ccccc2)sc1C(=O)NS(=O)(=O)c1ccc(CN2CCN(c3ccccc3)CC2)cc1", "Potency": "active: 31.6 µM"},
      {"smiles": "O=[N+]([O-])c1ccc(COc2ccccc2/C=N/O)cc1", "activity change, negative = inhibition": "inactive: 0.195%"},
      {"smiles": "CC1CCCC(NC(=O)COC(=O)CCC2CCCC2)C1C", "note": "(centres undefined)", "Potency": "inconclusive: 141 µM [inhibitor, partial curve, poor fit]"},
      {"smiles": "CCOc1cc(C(=O)Nc2nnc(C)s2)cc(OCC)c1OCC", "Potency": "inconclusive: 35.5 µM [inhibitor, single point]"},
      {"smiles": "C/C(=N\\NC(=O)c1ccc(CSc2cccc3cccnc23)cc1)C1CCCCC1", "activity change, negative = inhibition": "inactive: 8.96%"},
      {"smiles": "CCCCN(CC)CCNC(=O)Cn1c(C)c(C(=O)OCC)c(C)c1-c1ccccc1", "activity change, negative = inhibition": "inactive: 0.799%"},
      {"smiles": "Cc1c(N2C(=O)/C(=C\\C3CC=CCC3)SC2=S)c(=O)n(-c2ccccc2)n1C", "note": "(centres undefined)", "Potency": "inconclusive: 50.1 µM [inhibitor, partial curve, poor fit]"},
      {"smiles": "CC(C)(C)NC(=O)CNC(=O)C1CCCCC1", "activity change, negative = inhibition": "inactive: 54.6%"},
      {"smiles": "O=C(O)/C=C\\C(=O)Nc1cccc(C(=O)Nc2cccc(O)c2)c1", "Potency": "inconclusive: 25.1 µM [inhibitor, partial curve, poor fit]"},
      {"smiles": "Cc1cc(CNC(=O)c2cccc(F)c2F)c2[nH]c(C)c(C)c2c1", "activity change, negative = inhibition": "inactive: -3.78%"},
      {"smiles": "CS(=O)(=O)N1C[C@@H]2OCC(=O)N(Cc3ccncc3)[C@@H]2C1", "Potency": "inconclusive: 44.7 µM [inhibitor, full curve]"},
      {"smiles": "COc1ccc(/C=C/c2cc(C(F)(F)F)[nH]c(=O)n2)cc1OC", "Potency": "active: 8.91 µM"},
      {"smiles": "O=C(NC1CCCCCC1)c1ccc2c(Cl)c3c(nc2c1)CCC3", "Potency": "inconclusive: 5.62 µM [inhibitor, partial curve, poor fit]"},
      {"smiles": "Cn1nc(C(=O)OCc2nc(-c3ccccc3)no2)c2ccccc21", "Potency": "inconclusive: 56.2 µM [inhibitor, partial curve, poor fit]"},
      {"smiles": "O=C(Cn1cc(S(=O)(=O)Cc2ccccc2Cl)c2ccccc21)NCCc1ccccc1", "Potency": "inconclusive: 141 µM [inhibitor, partial curve, poor fit]"}
    ]}
  ]
}
